From US20230159601A1 (SEOUL NATIONAL UNIVERSITY HOSPITAL, published 2023)
No constants are given. Whether binding was seen depends on the method and setting. For part of these data: Binding seen in cells or lysates may run through a third protein. Some binding calls cover weakened binding; strength is not graded here.

Sequences of proteins named here, by UniProt entry; tags and fusion partners are left off. A change or cut given only in a name is not applied to a line headed by its entry. Residues count along the entry.
UniProt Q8NBP7: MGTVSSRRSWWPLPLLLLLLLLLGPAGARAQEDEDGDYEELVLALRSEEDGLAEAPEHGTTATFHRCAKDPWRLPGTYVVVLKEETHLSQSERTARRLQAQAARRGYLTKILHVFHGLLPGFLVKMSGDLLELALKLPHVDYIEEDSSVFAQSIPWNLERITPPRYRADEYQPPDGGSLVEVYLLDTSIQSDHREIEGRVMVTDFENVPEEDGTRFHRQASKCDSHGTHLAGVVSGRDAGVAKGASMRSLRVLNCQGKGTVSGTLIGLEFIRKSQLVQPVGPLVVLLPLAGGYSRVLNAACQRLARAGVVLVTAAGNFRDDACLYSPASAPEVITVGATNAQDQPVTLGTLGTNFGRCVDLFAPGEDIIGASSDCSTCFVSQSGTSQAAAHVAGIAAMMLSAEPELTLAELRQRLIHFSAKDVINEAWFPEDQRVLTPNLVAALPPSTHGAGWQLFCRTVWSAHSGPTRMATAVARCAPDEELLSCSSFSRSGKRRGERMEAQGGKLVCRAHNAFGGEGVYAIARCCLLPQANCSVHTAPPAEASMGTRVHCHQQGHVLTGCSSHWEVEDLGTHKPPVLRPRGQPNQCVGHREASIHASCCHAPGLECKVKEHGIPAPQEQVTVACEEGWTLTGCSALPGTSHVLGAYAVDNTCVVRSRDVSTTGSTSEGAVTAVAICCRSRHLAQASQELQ
UniProt Q80W65, residues 35-694: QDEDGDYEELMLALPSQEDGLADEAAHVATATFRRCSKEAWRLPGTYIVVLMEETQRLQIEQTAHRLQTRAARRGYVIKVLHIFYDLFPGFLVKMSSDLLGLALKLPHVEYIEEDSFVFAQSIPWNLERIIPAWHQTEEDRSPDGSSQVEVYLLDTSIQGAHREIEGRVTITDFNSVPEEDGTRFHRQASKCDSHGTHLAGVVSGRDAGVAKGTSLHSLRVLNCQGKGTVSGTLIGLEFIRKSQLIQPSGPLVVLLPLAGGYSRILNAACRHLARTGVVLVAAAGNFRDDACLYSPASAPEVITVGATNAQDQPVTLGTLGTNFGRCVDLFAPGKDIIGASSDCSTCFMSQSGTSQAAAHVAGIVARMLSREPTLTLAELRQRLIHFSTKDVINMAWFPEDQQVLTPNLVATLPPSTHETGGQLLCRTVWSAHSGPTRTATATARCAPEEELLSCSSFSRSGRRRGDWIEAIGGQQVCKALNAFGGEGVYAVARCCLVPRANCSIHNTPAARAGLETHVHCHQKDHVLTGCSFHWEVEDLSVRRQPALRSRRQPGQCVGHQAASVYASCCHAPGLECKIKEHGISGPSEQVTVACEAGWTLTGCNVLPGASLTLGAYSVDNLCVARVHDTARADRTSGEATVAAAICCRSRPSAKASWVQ

Key:
[1] = molecular target: human adenylyl cyclase-associated protein 1 (CAP1), wild type (human) (UniProt Q01518); assay: BLItz system, direct binding to CAP1 (FIG. 2C)
[2] = molecular target: hPCSK9 fused to a non-fluorescent fragment of a fluorescent protein (pVN173) for bimolecular fluorescence complementation (human) (UniProt Q8NBP7); assay: bimolecular fluorescence complementation in living cells (FIG. 1C)
[3] = molecular target: human adenylyl cyclase-associated protein 1 (CAP1), wild type (human) (UniProt Q01518); assay: surface plasmon resonance, direct binding analysis (FIG. 1E)
[4] = molecular target: human adenylyl cyclase-associated protein 1 (CAP1), wild type (human) (UniProt Q01518); assay: BLItz system, direct binding to CAP1 (FIG. 2C); wild-type reference
[5] = molecular target: human adenylyl cyclase-associated protein 1 (CAP1), wild type (human) (UniProt Q01518); assay: immunoprecipitation of a multi-protein complex (FIG. 4P)
[6] = molecular target: human adenylyl cyclase-associated protein 1 (CAP1), wild type (human) (UniProt Q01518); assay: in vitro co-immunoprecipitation, HEK293 cells (FIG. 1F)
[7] = molecular target: wild-type PCSK9 (PCSK9 WT) (human) (UniProt Q8NBP7); assay: co-immunoprecipitation, HEK293 cells (FIG. 1H)
[8] = molecular target: caveolin-1 (immunoprecipitation experiment of FIG. 4P) (UniProt Q03135); assay: immunoprecipitation (FIG. 4P)
[9] = molecular target: T1, endogenous mouse CAP1 (liver lysate of wild-type mice) (mouse) (UniProt P40124); assay: immunoprecipitation from wild-type mouse liver lysates (FIG. 4Q)
T1 sequence (looked up): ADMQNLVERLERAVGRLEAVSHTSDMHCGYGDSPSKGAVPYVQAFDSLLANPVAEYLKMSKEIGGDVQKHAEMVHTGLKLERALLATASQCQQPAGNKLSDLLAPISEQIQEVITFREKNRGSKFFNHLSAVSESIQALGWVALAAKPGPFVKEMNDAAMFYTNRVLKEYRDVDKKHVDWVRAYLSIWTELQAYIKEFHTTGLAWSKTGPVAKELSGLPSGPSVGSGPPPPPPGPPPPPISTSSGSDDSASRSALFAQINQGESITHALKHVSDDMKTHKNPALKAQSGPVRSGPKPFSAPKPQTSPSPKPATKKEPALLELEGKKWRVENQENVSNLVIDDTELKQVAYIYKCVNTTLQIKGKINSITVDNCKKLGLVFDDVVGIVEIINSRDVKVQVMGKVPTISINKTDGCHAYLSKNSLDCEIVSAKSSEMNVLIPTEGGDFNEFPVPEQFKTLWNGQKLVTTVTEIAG

[10] = molecular target: endogenous mouse PCSK9 (liver lysate of wild-type mice) (mouse) (UniProt Q80W65); assay: immunoprecipitation of endogenous proteins from mouse liver lysate (FIG. 1A)
[11] = molecular target: wild-type human PCSK9 with Flag tag (wtPCSK9-Flag) (human) (UniProt Q8NBP7); assay: co-immunoprecipitation, HEK293 cells (FIG. 1G)

PCSK9 A514T variant (from UniProt Q8NBP7 31-692) (enzyme)
binding [1]: binds

PCSK9 S668R G670E double variant (from UniProt Q8NBP7 31-692) (enzyme)
binding [1]: binds

hCAP1 fused to a non-fluorescent fragment of a fluorescent protein (pVC155) for bimolecular fluorescence complementation (from UniProt Q01518 1-475)
binding [2]: binds

recombinant human proprotein convertase subtilisin/kexin type-9 (rhPCSK9) (from UniProt Q8NBP7 31-692) (enzyme)
binding [3]: binds

wild-type PCSK9 (PCSK9 WT) (from UniProt Q8NBP7 31-692) (enzyme)
binding [4]: binds | binding [5]: binds

wild-type human PCSK9 with Flag tag (wtPCSK9-Flag) (from UniProt Q8NBP7 31-692) (enzyme)
binding [6]: binds

B1: human adenylyl cyclase-associated protein 1 (CAP1), wild type (other)
chain: MADMQNLVERLERAVGRLEAVSHTSDMHRGYADSPSKAGAAPYVQAFDSLLAGPVAEYLKISKEIGGDVQKHAEMVHTGLKLERALLVTASQCQQPAENKLSDLLAPISEQIKEVITFREKNRGSKLFNHLSAVSESIQALGWVAMAPKPGPYVKEMNDAAMFYTNRVLKEYKDVDKKHVDWVKAYLSIWTELQAYIKEFHTTGLAWSKTGPVAKELSGLPSGPSAGSGPPPPPPGPPPPPVSTSSGSDESASRSALFAQINQGESITHALKHVSDDMKTHKNPALKAQSGPVRSGPKPFSAPKPQTSPSPKRATKKEPAVLELEGKKWRVENQENVSNLVIEDTELKQVAYIYKCVNTTLQIKGKINSITVDNCKKLGLVFDDVVGIVEIINSKDVKVQVMGKVPTISINKTDGCHAYLSKNSLDCEIVSAKSSEMNVLIPTEGGDFNEFPVPEQFKTLWNGQKLVTTVTEIAG
notes: also called hCAP1; wtCAP1
binding [7]: binds | binding [8]: binds

B2: endogenous mouse caveolin-1 (liver lysate of wild-type mice) (protein, UniProt P49817 2-178, looked up)
chain: SGGKYVDSEGHLYTVPIREQGNIYKPNNKAMADEVTEKQVYDAHTKEIDLVNRDPKHLNDDVVKIDFEDVIAEPEGTHSFDGIWKASFTTFTVTKYWFYRLLSTIFGIPMALIWGIYFAILSFLHIWAVVPCIKSFLIEIQCISRVYSIYVHTFCDPLFEAIGKIFSNIRISTQKEI
binding [9]: binds

B3: endogenous mouse CAP1 (liver lysate of wild-type mice) (protein, UniProt P40124 2-474, looked up)
chain: ADMQNLVERLERAVGRLEAVSHTSDMHCGYGDSPSKGAVPYVQAFDSLLANPVAEYLKMSKEIGGDVQKHAEMVHTGLKLERALLATASQCQQPAGNKLSDLLAPISEQIQEVITFREKNRGSKFFNHLSAVSESIQALGWVALAAKPGPFVKEMNDAAMFYTNRVLKEYRDVDKKHVDWVRAYLSIWTELQAYIKEFHTTGLAWSKTGPVAKELSGLPSGPSVGSGPPPPPPGPPPPPISTSSGSDDSASRSALFAQINQGESITHALKHVSDDMKTHKNPALKAQSGPVRSGPKPFSAPKPQTSPSPKPATKKEPALLELEGKKWRVENQENVSNLVIDDTELKQVAYIYKCVNTTLQIKGKINSITVDNCKKLGLVFDDVVGIVEIINSRDVKVQVMGKVPTISINKTDGCHAYLSKNSLDCEIVSAKSSEMNVLIPTEGGDFNEFPVPEQFKTLWNGQKLVTTVTEIAG
binding [10]: binds

B4: Src homology 3 binding domain (SH3BD) of CAP1, expressed alone (protein)
chain: LAWSKTGPVAKELSGLPSGPSAGSGPPPPPPGPPPPPVSTSSGSDESASRSALFAQINQGESITHALKHVSDDMKTHKNPALKAQSGPVRSGPKPFSAPKPQTSPSPKRATKKEPAVLELEGKKWR
binding [11]: binds
